Results on nine targets are retold here after the supplement of paper PMC12819154, “High-throughput peptide-centric local stability assay extends protein–ligand identification to membrane proteins, tissues and bacteria” (Nature Structural & Molecular Biology, 2025).

Sequences of proteins named here, by UniProt entry; tags and fusion partners are left off. A change or cut given only in a name is not applied to a line headed by its entry.
UniProt Q08J23, whole entry: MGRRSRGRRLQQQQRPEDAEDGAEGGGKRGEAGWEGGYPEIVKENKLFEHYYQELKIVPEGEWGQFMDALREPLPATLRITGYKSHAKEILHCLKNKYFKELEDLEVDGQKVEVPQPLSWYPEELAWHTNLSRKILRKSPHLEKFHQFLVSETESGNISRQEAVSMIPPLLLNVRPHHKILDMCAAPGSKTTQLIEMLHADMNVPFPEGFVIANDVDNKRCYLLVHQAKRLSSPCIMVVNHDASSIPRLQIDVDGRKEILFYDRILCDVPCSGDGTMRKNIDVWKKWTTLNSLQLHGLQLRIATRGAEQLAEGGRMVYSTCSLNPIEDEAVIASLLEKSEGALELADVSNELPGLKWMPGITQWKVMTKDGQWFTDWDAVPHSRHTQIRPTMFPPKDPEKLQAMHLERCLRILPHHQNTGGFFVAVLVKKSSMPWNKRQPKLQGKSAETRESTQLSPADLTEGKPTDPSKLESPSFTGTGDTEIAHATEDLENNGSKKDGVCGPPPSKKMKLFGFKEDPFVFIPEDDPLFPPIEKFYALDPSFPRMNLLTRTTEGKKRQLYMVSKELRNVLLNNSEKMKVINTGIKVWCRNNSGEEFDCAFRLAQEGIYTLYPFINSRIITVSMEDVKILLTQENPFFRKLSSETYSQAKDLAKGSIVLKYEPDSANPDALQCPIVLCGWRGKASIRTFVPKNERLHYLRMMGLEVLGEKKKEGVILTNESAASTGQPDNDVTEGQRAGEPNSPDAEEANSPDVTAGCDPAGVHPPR
UniProt Q03060: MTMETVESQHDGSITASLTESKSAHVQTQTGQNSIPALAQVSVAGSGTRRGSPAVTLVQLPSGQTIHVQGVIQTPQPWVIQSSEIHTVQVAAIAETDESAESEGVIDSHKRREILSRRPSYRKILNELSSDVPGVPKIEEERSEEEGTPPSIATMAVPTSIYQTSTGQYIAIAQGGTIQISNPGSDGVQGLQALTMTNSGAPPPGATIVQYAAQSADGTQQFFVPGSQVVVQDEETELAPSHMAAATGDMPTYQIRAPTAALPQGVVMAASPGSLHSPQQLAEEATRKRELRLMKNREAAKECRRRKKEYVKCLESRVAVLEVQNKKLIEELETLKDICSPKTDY
UniProt Q07960: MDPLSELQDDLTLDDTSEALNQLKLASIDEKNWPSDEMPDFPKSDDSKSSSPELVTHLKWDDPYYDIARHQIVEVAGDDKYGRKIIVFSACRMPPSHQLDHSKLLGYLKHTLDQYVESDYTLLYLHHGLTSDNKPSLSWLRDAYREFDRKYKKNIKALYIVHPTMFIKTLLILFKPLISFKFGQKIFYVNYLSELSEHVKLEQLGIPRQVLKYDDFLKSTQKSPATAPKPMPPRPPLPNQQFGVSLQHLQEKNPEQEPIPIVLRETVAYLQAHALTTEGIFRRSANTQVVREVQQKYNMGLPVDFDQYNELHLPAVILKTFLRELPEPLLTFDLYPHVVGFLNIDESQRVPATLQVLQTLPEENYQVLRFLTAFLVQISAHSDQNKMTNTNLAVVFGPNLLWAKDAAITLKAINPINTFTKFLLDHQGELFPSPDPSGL
UniProt Q03113, whole entry: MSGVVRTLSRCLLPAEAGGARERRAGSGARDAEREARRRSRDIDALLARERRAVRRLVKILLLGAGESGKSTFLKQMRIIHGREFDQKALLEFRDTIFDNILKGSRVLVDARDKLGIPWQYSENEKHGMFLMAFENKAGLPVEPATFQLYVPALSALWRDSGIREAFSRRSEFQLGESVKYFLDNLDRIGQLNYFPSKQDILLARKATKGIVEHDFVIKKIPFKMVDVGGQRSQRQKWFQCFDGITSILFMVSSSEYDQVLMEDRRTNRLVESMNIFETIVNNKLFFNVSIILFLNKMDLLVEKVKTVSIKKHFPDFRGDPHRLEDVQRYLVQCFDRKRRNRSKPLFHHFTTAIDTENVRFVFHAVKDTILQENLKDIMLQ
UniProt Q12857, whole entry: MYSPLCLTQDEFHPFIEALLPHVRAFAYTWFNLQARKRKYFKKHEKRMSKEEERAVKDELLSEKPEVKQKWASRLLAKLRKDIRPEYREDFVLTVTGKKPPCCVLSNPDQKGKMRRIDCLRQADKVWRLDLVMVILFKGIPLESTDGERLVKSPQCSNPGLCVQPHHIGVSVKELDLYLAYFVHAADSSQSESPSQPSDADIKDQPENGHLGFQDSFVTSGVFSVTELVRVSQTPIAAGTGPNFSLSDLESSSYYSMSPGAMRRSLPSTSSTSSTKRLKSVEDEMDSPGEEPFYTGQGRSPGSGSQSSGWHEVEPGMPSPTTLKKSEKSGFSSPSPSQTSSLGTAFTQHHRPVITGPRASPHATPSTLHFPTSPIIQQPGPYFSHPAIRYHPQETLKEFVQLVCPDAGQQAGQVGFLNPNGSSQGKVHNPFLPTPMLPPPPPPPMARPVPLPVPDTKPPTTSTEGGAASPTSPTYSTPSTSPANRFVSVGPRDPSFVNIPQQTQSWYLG
UniProt Q12974: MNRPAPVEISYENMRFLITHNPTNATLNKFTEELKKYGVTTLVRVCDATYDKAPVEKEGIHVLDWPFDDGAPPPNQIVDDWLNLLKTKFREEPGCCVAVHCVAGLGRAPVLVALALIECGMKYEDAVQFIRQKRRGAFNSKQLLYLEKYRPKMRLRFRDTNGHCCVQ
UniProt Q0VAQ4: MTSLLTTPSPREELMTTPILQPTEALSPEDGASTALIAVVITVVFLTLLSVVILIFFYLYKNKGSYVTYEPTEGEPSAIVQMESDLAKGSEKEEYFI

The other results are listed elsewhere or left out. Most entries show no effect beyond the scatter of the controls.

Compound in the experiment: Cc1nc(Nc2ncc(C(=O)Nc3c(C)cccc3Cl)s2)cc(N2CCN(CCO)CC2)n1 [dasatinib]
The experiment is described as follows: log2 fold change of tryptic peptide abundance, ligand vs vehicle (limited proteolysis) (log2 ratio); higher = more trypsin-susceptible (destabilized). The note with it: ligand concentration: 5 uM; sample: K562 cleared lysate.
With “BPTF (peptide sequence: LPGNTNVNYR, peptide start residue: 1049) (UniProt Q12830)”, the log2 fold change was -0.374.

Consider “NSUN2 (peptide sequence: LSSPCIMVVNHDASSIPR, peptide start residue: 231) (UniProt Q08J23)”, for which the log2 fold change came to 0.105. As to “CREM (peptide sequence: KILNELSSDVPGVPK, peptide start residue: 123) (UniProt Q03060)”, the log2 fold change was 0.11.

Consider “H3F3A (peptide sequence: SAPSTGGVKKPHR, peptide start residue: 29) (UniProt P84243)”, for which the log2 fold change is -0.0889. For the target “ARHGAP1 (peptide sequence: LEQLGIPR, peptide start residue: 201) (UniProt Q07960)”, the log2 fold change was -0.164. To “GNA12 (peptide sequence: CLLPAEAGGAR, peptide start residue: 11) (UniProt Q03113)” belongs 0.424; to “NFIA (peptide sequence: SLPSTSSTSSTK, peptide start residue: 265) (UniProt Q12857)”, -0.259; to “UniProt Q12974 (peptide sequence: VCDATYDKAPVEK, peptide start residue: 45)”, -0.0934. In the case of “SMAGP (peptide sequence: GSEKEEYFI, peptide start residue: 89) (UniProt Q0VAQ4)”, the log2 fold change worked out at 0.336.
